Literature values as cited in patent publication US11446302B2, “Compounds with anti-tumor activity against cancer cells bearing EGFR or HER2 exon 20 mutations” (Board of Regents, The University of Texas System, priority 2016, dated 2022).
Some results were stated once for a whole list of compounds, not compound by compound.

Tested on: HER2 mutant tumors
Conditions: many studies, Kosaka et al., 2017; cited from earlier work

## CCOc1cc2ncc(C#N)c(Nc3ccc(OCc4ccccn4)c(Cl)c3)c2cc1NC(=O)/C=C/CN(C)C [Neratinib]
  OR rates in patients with HER2 mutant tumors: below 40%
